Results published in the supplement of paper PMC4962491.
Where a name gives a salt, the structure may show the parent alone. ± gives the standard deviation of the averaged measurements. Only a part is listed here, and it is no random draw. Repeats in this data set agree poorly, so a single value says little.

Test system: FaDu
Experiment: mitochondrial oxygen consumption rate normalised to cell number, Z score over the library; higher = higher oxygen consumption (negative = OCR reduction)
Settings: treatment time 24 h, assay medium: 5 mM galactose, 5 mM pyruvate, 4 mM glutamine
Description: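 Primary screen: FaDu cells were incubated 24 h with Pharmakon 1600 / TDI oncology set compounds at 2 or 10 uM. Mitochondrial-specific OCR (basal minus 2 uM antimycin A) was measured on a Seahorse XF96 in assay medium with 5 mM galactose, 5 mM pyruvate and 4 mM glutamine, then corrected for Hoechst cell number and expressed as a Z score […]. Compounds that cut cell number by >66% were excluded. Two repeats.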

SMILES	mitochondrial oxygen consumption rate normalised (2 µM)	mitochondrial oxygen consumption rate normalised (10 µM)
CN1CCN(CC(=O)N2c3ccccc3C(=O)Nc3cccnc32)CC1	0.0329 ± 0.57	
CC(=O)N(CC(O)CO)c1c(I)c(C(=O)NCCO)c(I)c(C(=O)NCC(O)CO)c1I (configuration not stated)	-0.226 ± 0.72	
CC(C)NCC(O)COc1ccc(CC(N)=O)cc1 (configuration not stated)	-0.231 ± 0.16	
CC1=C(C)C(=O)C(C(CCCCCC(=O)O)c2ccccc2)=C(C)C1=O (configuration not stated)	0.367 ± 0.25	
CNCCc1ccccn1	0.331 ± 0.1	
CC1CC2C3CCC4=CC(=O)C=CC4(C)C3(F)C(O)CC2(C)C1C(=O)CO (configuration not stated)	-0.215 ± 0.0033	
CC=CC(=O)N(CC)c1ccccc1C	-0.329 ± 0.14	
CN(C)C(=N)NC(=N)N	-0.544 ± 0.47	
NCCCCCC(=O)O	1.32 ± 0.82	
Nc1nc2c(ncn2COC(CO)CO)c(=O)[nH]1	0.36 ± 0.068	
CCCCCCCCCCCCCCCC(=O)OC[C@H](O)[C@H]1OC(=O)C(O)=C1O	0.851 ± 0.43	
Clc1cccc(Cl)c1NC1=NCCN1	0.256 ± 1.6	
CO[C@H]1/C=C/O[C@@]2(C)Oc3c(C)c(O)c4c(O)c(c5c(nc6cc(C)ccn65)c4c3C2=O)NC(=O)/C(C)=C\C=C\[C@H](C)[C@H](O)[C@@H](C)[C@@H](O)[C@@H](C)[C@H](OC(C)=O)[C@@H]1C	-0.44 ± 0.85	0.795 ± 0.38
Cc1cc(O)c(C(=O)N[C@@H](C(=O)N[C@@H]2C(=O)N3C(C(=O)O)=C(CSc4nnnn4C)CS[C@H]23)c2ccc(O)cc2)cn1	-0.71 ± 0.4	
CC(=O)O[C@]1(C(C)=O)CC[C@H]2[C@@H]3C=C(Cl)C4=CC(=O)CC[C@]4(C)[C@H]3CC[C@@]21C	-0.389 ± 0.87	
CCN(CC)C(C)CN1c2ccccc2Sc2ccccc21 (configuration not stated)	0.271 ± 0.47	
CCCNC(=O)NS(=O)(=O)c1ccc(Cl)cc1	1.05 ± 1.4	
O=C1NCC2(CCN(CCc3ccccc3)CC2)O1	0.291 ± 0.64	
CN(C)CCOC(c1ccccc1)c1ccccc1.Cn1c(=O)c2[nH]c(Cl)nc2n(C)c1=O	-0.443 ± 0.78	
Cc1cc2nc3c(=O)[nH]c(=O)nc-3n(C[C@H](O)[C@H](O)[C@H](O)CO)c2cc1C	0.987 ± 0.05	
CCCOc1ccc2[nH]c(NC(=O)OC)nc2c1	0.174 ± 1.5	
CCN(CC)C(=O)c1ccc(O)c(OC)c1	0.235 ± 0.31	
O=C(c1ccc(F)cc1)C1CCN(CCn2c(=O)[nH]c3ccccc3c2=O)CC1	0.341 ± 0.15	
CC(=O)[C@@]1(O)CC[C@H]2[C@@H]3CCC4=CC(=O)CC[C@]4(C)[C@H]3CC[C@@]21C	-1.44 ± 1.2	
Cc1cc(C)nc(NS(=O)(=O)c2ccc(N)cc2)n1	-0.531 ± 0.27	
CCCCCCCC/C=C\CCCCCCCC(=O)O.NCCO	0.00961 ± 1.2	

Rewritten with bars between the fields: part of the list above
SMILES | mitochondrial oxygen consumption rate normalised (2 µM) | mitochondrial oxygen consumption rate normalised (10 µM)
CC1=C(C)C(=O)C(C(CCCCCC(=O)O)c2ccccc2)=C(C)C1=O (configuration not stated) | 0.367 ± 0.25 | 
CNCCc1ccccn1 | 0.331 ± 0.1 | 
CC1CC2C3CCC4=CC(=O)C=CC4(C)C3(F)C(O)CC2(C)C1C(=O)CO (configuration not stated) | -0.215 ± 0.0033 | 
CC=CC(=O)N(CC)c1ccccc1C | -0.329 ± 0.14 | 
CN(C)C(=N)NC(=N)N | -0.544 ± 0.47 | 
NCCCCCC(=O)O | 1.32 ± 0.82 | 
Nc1nc2c(ncn2COC(CO)CO)c(=O)[nH]1 | 0.36 ± 0.068 | 
CCCCCCCCCCCCCCCC(=O)OC[C@H](O)[C@H]1OC(=O)C(O)=C1O | 0.851 ± 0.43 | 
Clc1cccc(Cl)c1NC1=NCCN1 | 0.256 ± 1.6 | 
CO[C@H]1/C=C/O[C@@]2(C)Oc3c(C)c(O)c4c(O)c(c5c(nc6cc(C)ccn65)c4c3C2=O)NC(=O)/C(C)=C\C=C\[C@H](C)[C@H](O)[C@@H](C)[C@@H](O)[C@@H](C)[C@H](OC(C)=O)[C@@H]1C | -0.44 ± 0.85 | 0.795 ± 0.38

Remaining list, next part.

SMILES	mitochondrial oxygen consumption rate normalised (2 µM)	mitochondrial oxygen consumption rate normalised (10 µM)
COc1cc(NS(=O)(=O)c2ccc(N)cc2)ncn1	0.672 ± 0.45	0.47 ± 0.61
CC1(C)O[C@@H]2C[C@H]3[C@@H]4C[C@H](F)C5=CC(=O)C=C[C@]5(C)[C@@]4(F)[C@@H](O)C[C@]3(C)[C@]2(C(=O)CO)O1	-0.419 ± 0.62	
COC(=O)N/N=C/c1c[n+]([O-])c2ccccc2[n+]1[O-]	1.12 ± 0.47	
CN(C(=O)CN(CCO)CC(=O)N(C)C(C)(C)Cc1ccccc1)C(C)(C)Cc1ccccc1	0.525 ± 0.92	
CC(C)[C@H](N)C(=O)OCCOCn1cnc2c(=O)nc(N)[nH]c21	0.264 ± 0.27	
CC(C(O)c1ccc(O)cc1)N1CCC(Cc2ccccc2)CC1 (configuration not stated)	-1.28 ± 0.75	
C[C@@H]1C/C=C/C=C/C=C/C=C/[C@H](O[C@@H]2O[C@H](C)[C@@H](O)[C@H](N)[C@@H]2O)C[C@@H]2O[C@](O)(C[C@@H](O)C[C@H]3O[C@@H]3/C=C/C(=O)O1)C[C@H](O)[C@H]2C(=O)O	-0.0302 ± 0.33	
COc1ccc(Cl)cc1C(=O)NCCc1ccc(S(=O)(=O)NC(=O)NC2CCCCC2)cc1	0.578 ± 0.011	
CCCCCCNC(=O)n1cc(F)c(=O)[nH]c1=O	0.607 ± 1.3	
CCCOc1ccccc1-c1nc2[nH]nnc2c(=O)[nH]1	0.522 ± 0.66	
CC(=O)Nc1ccc(OC(=O)c2ccccc2O)cc1	-0.534 ± 0.16	-0.337 ± 0.25
COc1cc2nc(N3CCN(C(=O)C4COc5ccccc5O4)CC3)nc(N)c2cc1OC (configuration not stated)	0.927 ± 0.94	
CCCCC1C(=O)N(c2ccccc2)N(c2ccc(O)cc2)C1=O (configuration not stated)	-0.199 ± 0.27	
N[C@H]1CONC1=O	0.285 ± 1.1	
O=C(CCBr)N1CCN(C(=O)CCBr)CC1	0.446 ± 1.6	1.32 ± 1.1
O=C(CCBr)N1CCN(C(=O)CCBr)CC1 [Pipobroman]	0.16 ± 0.79	-0.527 ± 1.4
CCN(CC)CCOCCOC(=O)C1(c2ccccc2)CCCC1	-0.0751 ± 1.1	
CC#CCn1c(N2CCC[C@@H](N)C2)nc2c1c(=O)n(Cc1nc(C)c3ccccc3n1)c(=O)n2C	-0.191 ± 0.092	0.0591 ± 0.1
O=P(O)(O)C(O)(Cn1ccnc1)P(=O)(O)O [Zoledronic Acid]	1.02 ± 0.43	
CCN(CCCCOC(=O)c1ccc(OC)c(OC)c1)C(C)Cc1ccc(OC)cc1 (configuration not stated)	0.16 ± 0.55	
Cc1cc(C(C)(C)C)cc(C)c1CC1=NCCN1	0.145 ± 0.013	
CCN(CC)C(=O)C1(c2ccccc2)CC1CN (configuration not stated)	0.372 ± 0.47	
CC(C)(CO)[C@@H](O)C(=O)NCCC(=O)O [PANTOTHENIC ACID(d) Na salt]	1.16 ± 0.33	
O=C(O)c1ccc[n+]([O-])c1	-0.0161 ± 0.072	
NC[C@H]1O[C@H](O[C@H]2[C@H](O)[C@@H](O[C@H]3O[C@H](CO)[C@@H](O)[C@H](N)[C@H]3O)[C@H](N)C[C@@H]2N)[C@H](N)C[C@@H]1O	0.138 ± 0.066	
